No constants are given. Whether binding was seen depends on the method and setting. In cells and extracts the contact can be indirect. Binding can be weak; no strength is given. Where a sequence is shown, tags or fusion partners need not be part of it.
Molecular target: EGFP::HPO-11 (C. elegans)
Assay: co-IP

B1: SMG-2::V5::6xHis (protein, UniProt O76512 1-1069)
chain: MDDSDDEYSRSHGETLTFVDPEDDGVSIGNTQDSQFAYEQFSVPTQSSQATDLLPGGTDGTTNDLPFHDVEDDESDSEKSLTEEQHEQKLPEHACRYCGISDPLCVAKCTVCRKWFCNSNDGTSGGHIVHHMVRSQHKEAYTHKDSPCGDTQLECYRCGSKNVFNLGFIPGKKDQVVVIICRTPCASIAFQNDDNWSPEDWKSVIAEKQLLSWIVNVPSEEQVARARKITATQAVRMEELWRDHPEATVDDLNKPGLDREPDHVQLRYVDAHHYSKVFRPLVAIEAEYDRRVKESASQAVGTVRWEQGLRQSVLAFFHLPQFADGVMKLAKGDELRLKHSQTVDGSEWTKIGSVFKIPDNHGDEVGIEIRGAVDKSVMESRIMFTVDVVWNATTFERQYKALAALLNDSKAISPYLYQKLLGHPAEEMMLKFDLPRRLSVAGLPELNSSQMQAVKQVLTRPLSLIQGPPGTGKTVVSATIVYHLVQKTEGNVLVCSPSNIAVDHLAEKIHKTGLKVVRLCARSREHSETTVPYLTLQHQLKVMGGAELQKLIQLKDEAGELEFKDDLRYMQLKRVKEHELLAAADVICCTCSSAADARLSKIRTRTVLIDESTQATEPEILVSIMRGVRQLVLVGDHCQLGPVVICKKAAIAGLSQSLFERLVLLGIRPFRLQVQYRMHPVLSEFPSNVFYDGSLQNGVTENDRHMTGVDWHWPKPNKPAFFWHCSGSEELSASGTSFLNRTEAANVEKLVSKLIKAGVQPHQIGVITSYEGQRSFIVNYMHTQGTLNSKLYENVEIASVDAFQGREKDYIIVTCVRSNDILGIGFLSDPRRLNVAITRAKYGLVLVGNAKVLARHDLWHELINHYKSKEMLYEGPINALKPLNLALPKATIRTKNNIAGNANRFGIKRMQYTFNEYKSNDPSQPRLPPTYSNSQNLLSMSKLAQTFNKNVPIPAHMMDPNVYAAARNQKDRRRGDQRRPPPQAEAAMDLSQGMMSQQSQQYPPQGASSQSQYLLDGASSLSGWSQSQTTTTTTRHHHHRQNRNSQQQMSQDMDDIQQKMDDLLFSQDC
binding: binds

Source: paper doi:10.1101/2022.09.04.506508
